For some assays here: At least one structure is not confirmed: it was looked up by name or label, or the drawing left a doubt. Some results were stated once for a whole list of compounds, not compound by compound.
How the values were obtained:
Z. tritici = assay type: cell-based, Zymoseptoria tritici
Z. tritici mitochondria = assay type: cell-based, Zymoseptoria tritici
Daphnia magna = Daphnia magna 24 h toxicity (motility, escape response as indicator of mortality); assay type: in vivo
Description: Next, water fleas were treated for 24 h with various concentrations of all three SACCs and their motility behaviour and “escape response” monitored as an indicator of mortality. […] Higher amounts of both C18 SACCs eventually killed Daphnia magna, with C18-TMA+ being 1.8-times more toxic than C18-DMS+.

[1] = system: C109 human skin fibroblasts; assay: Mitochondrial organization in human skin fibroblasts; assay type: cell-based; conditions: human vs Z. tritici
Description: The effects on mitochondria may account for the fungal specificity of C12-G+. To test this, mammalian skin C109 fibroblasts were treated with C12-G+ and monitored for its effect on mitochondrial shape and membrane potential.
Low toxicity to humans and in the environment is an important requirement for fungicides. The toxicity of C12-TPP+, C18-TMA+ and C18-DMS+ was therefore tested on C109 human skin fibroblasts. Mitochondrial organization and mitochondrial membrane potential were monitored after incubating with various concentrations of the compounds.

[2] = system: C109 human skin fibroblasts; assay: Mitochondrial membrane potential in human skin fibroblasts; conditions: human vs fungal

Compound	more toxic to Z. tritici than C12-G+ (Z. tritici)	concentration inducing changes in mitochondrial morphology in fungi (Z. tritici mitochondria)	less toxic to Daphnia magna than C12-G+ (Daphnia magna)	higher concentration than in Z. tritici (EC50 fragmentation of mitochondria) [1] [times]	human cells less sensitive (EC50 depolarisation) [2] [times]
octadecyldimethylsulfonium [C18-DMS+]	2-7 times	1.5-1.8 μg/ml	5-8 times	–	–
CCCCCCCCCCCCNC(=N)N [C12-G+, dodecylguanidinium]	–	–	–	~5	~50

Reference: US12635689B2, “Antifungal compositions” (priority 2019, dated 2026)
